The values that follow come from PubChem BioAssay AID230 (DTP/NCI, 2004).

The assay concerns C3H/He mice, Gardner lymphosarcoma 6C3HED ip, survival T/C. The experiment in a line: NCI In Vivo Anticancer Drug Screen. Data for tumor model Lymphosarcoma Gardner 6C3HED (intraperitoneal) in C3H/He mice. The conditions noted are these: T/C endpoint: survival time, mean or median, schedule: Q01DX010 (ip), vehicle: saline, higher T/C = longer survival. How it is done: The antitumor activity of compounds was measured in mice bearing transplantable tumors. Survival or tumor size were measured and the results are expressed as the measurement made in the treated group (T) divided by the measurement made in the vehicle treated control group (C). The tumor model used in this assay is Lymphosarcoma Gardner 6C3HED (intraperitoneal) in C3H/He mice

Each structure is given as a SMILES string. The list is a part of this screen's results and no random one: it gathers some chemical classes. Other doses and runs of a compound may be missing. T/C gives the treated animals as a percentage of the vehicle group. For survival time, this PubChem deposit counts one and a half times the control or more as active, and values a quarter to a half above the control carry no call in these data; other NCI protocols may use other cut-offs. Some entries show no survivor count and are marked so; the dose need not have been tolerated. Schedules are NCI's codes, read here as Q, the interval in days (D) or hours (H), X, the number of doses.

In the case of `CN(CCCl)CCCl`, the T/C reads like this: (dose: 0.06 mg/kg/injection) 133 % of control [survivor count not shown]; (dose: 0.13 mg/kg/injection) 166 % of control [survivor count not shown]; (dose: 0.25 mg/kg/injection) 223 % of control [survivor count not shown]; (dose: 0.5 mg/kg/injection) 180 % of control [survivor count not shown].
